Assay results as given in article doi:10.1101/2022.05.20.492668.
No constants are given. Whether binding was seen depends on the method and setting. Binding seen in cells or lysates may run through a third protein. Binding calls can cover weak binding; strength is not graded here.

Target: Ras-related protein Rab-11A (mouse (endogenous in brain synaptoneurosomes))
Test: co-IP

B1: autophagy-related protein 9A (protein, UniProt Q68FE2 1-839)
chain: MAQFDTEYQRLEASYSDSPPGEEDLLVHVAEGSKSPWHHIENLDLFFSRVYNLHQKNGFTCMLIGEMFELMQFLFVVAFTTFLVSCVDYDILFANKMVNHSLHPTEPVKVTLPDAFLPAQVCSARIQENGSLITILVIAGVFWIHRLIKFIYNICCYWEIHSFYLHALRIPMSALPYCTWQEVQARIVQTQKEHQICIHKRELTELDIYHRILRFQNYMVALVNKSLLPLRFRLPGLGEVVFFTRGLKYNFELILFWGPGSLFLNEWSLKAEYKRGGQRLELAQRLSNRILWIGIANFLLCPLILIWQILYAFFSYAEVLKREPGALGARCWSLYGRCYLRHFNELEHELQSRLNRGYKPASKYMNCFLSPLLTLLAKNGAFFAGSILAVLIALTIYDEDVLAVEHVLTTVTLLGVTVTVCRSFIPDQHMVFCPEQLLRVILAHIHYMPDHWQGNAHRSQTRDEFAQLFQYKAVFILEELLSPIVTPLILIFCLRPRALEIIDFFRNFTVEVVGVGDTCSFAQMDVRQHGHPQWLSGGQTEASVYQQAEDGKTELSLMHFAITNPGWQPPRESTAFLGFLKEQVQRDGAAAGLAQGGLLPENALFTSIQSLQSESEPLSLIANVVAGSSCRGPSLSRDLQGSRHRADVASALRSFSPLQPGAAPQGRVPSTMTGSGVDARTASSGSSVWEGQLQSLVLSEYASTEMSLHALYMHQLHKQQTQAEPERHVWHRRESDESGESAPEEGGEGARAPQPIPRSASYPCATPRPGAPETTALHGGFQRRYGGITDPGTVPRGPSHFSRLPLGGWAEDGQPASRHPEPVPEEGSEDELPPQVHKV
Q: B1 was tested. Which binding did it give?
A: The binding was “binds”.
